According to PubChem BioAssay AID493014 (National Center for Advancing Translational Sciences (NCATS), 2011):
The whole screen tested about 340,000 compounds, of which about 170 (0.05%) were called active. Inconclusive means that the source gave no clear call. Such entries were picked first, then a sample of the others. Calls follow the shape of the dose curve; as a rule, active = well fitted inhibition curve with a large enough effect in the signal ratio, with a control signal flat (not every such curve was filed as active); inconclusive = small, poorly fitted or top-dose-only effect, or effect the other way, or a change in a side signal; inactive = flat fitted curve, though single readings scatter; the % refers to the signal ratio. A potency beside an inconclusive call is a rough fit, not a confirmed value.
Potency is read from the fitted curve at half-maximal effect.

Assay: qHTS Assay to Find Inhibitors of Chronic Active B-Cell Receptor Signaling;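 as to activity change, negative = inhibition: plate controls were basal doxycycline-induced cells for no effect and cells given 10 µM MG132 for full effect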
Details: ABC-DLBCL IkBa-CBG/CBR reporter, luminescence ratio (green luciferase fused to IkBa over red control in TMD8 lymphoma cells), 4 h; activity change, negative = inhibition: at 46.1 µM (top of the series)
Outline: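 Compounds up to 46 uM were incubated four hours with TMD8 cells whose green CBG68 luciferase is fused to IkappaBalpha; red CBR luminescence normalised the signal, and concentration-effect curves were fitted to fusion, red and ratio data.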
For `COc1ccccc1NC(=O)Nc1ccnn1C1CCCCC1`, the activity change, negative = inhibition was “inactive”.
With `NC(=O)C1CCN(C(=O)COc2cccc3ccccc23)CC1` the Potency was inconclusive: 32.6 µM [falling, single point].
In the case of `c1ccc(C2=Nn3c(nnc3-c3cccs3)SC2)cc1`, the activity change, negative = inhibition is reported as inconclusive: -17.6%.
For `COc1ccccc1N1CCN(C/C(O)=C(\C#N)c2nc(-c3ccccc3)cs2)CC1`, the activity change, negative = inhibition was inconclusive: 12.3%.
For `COc1cccc(NC(=O)c2c(F)cccc2F)c1`, the Potency was inconclusive: 14.6 µM [falling, partial curve, poor fit].
For `COC(=O)c1ccc(NC(=O)C2CCN(S(C)(=O)=O)CC2)cc1`, the activity change, negative = inhibition was “inactive”.
In the case of `CCc1cc(=O)oc2cc(C)cc(OC(C)C(=O)NCc3ccccn3)c12` (stereo not drawn), the activity change, negative = inhibition is reported as “inactive”.
In the case of `Cn1c(/N=C/c2c[nH]c3ccccc23)nc2ccccc21`, the activity change, negative = inhibition is reported as inconclusive: -15.7%.
With `Cc1ccc(NC(=O)CSc2nnc(N)s2)cc1S(=O)(=O)N1CCOCC1` the activity change, negative = inhibition was inconclusive: -2.45%.
For `C/C(CC(=O)Nc1ccc(N(C)C)cc1)=N\NC(=O)c1cnccn1`, the activity change, negative = inhibition was inconclusive: -25.7%.
For `c1ccc(-c2ccc(-c3ccccn3)nn2)nc1`, the Potency was inconclusive: 20 µM [falling, partial curve].
In the case of `CC#C[C@@H](CC)c1ccc2ccn(C)c2c1`, the activity change, negative = inhibition is reported as inconclusive: -19.7%.
For `CCOC(=O)C1CCN(C(=O)c2c(C)oc3c2C(=O)c2ccccc2C3=O)CC1`, the activity change, negative = inhibition was “inactive”.
In the case of `O=C(Nc1ccc([N+](=O)[O-])cc1)Nc1ccc(Cl)cc1F`, the activity change, negative = inhibition is reported as inconclusive: 2%.
With `CSc1nc(O)c(N=Nc2ccc(F)cc2F)c(=O)[nH]1` the Potency was inconclusive: 22.4 µM [falling, partial curve].
In the case of `O=C(O)CSc1ncnc2sc(-c3ccccc3)cc12`, the activity change, negative = inhibition is reported as inconclusive: 10.1%.
With `Cc1ccc(-c2ccc(OC(=O)c3ccc(=O)[nH]c3)c(C)c2)cc1` the activity change, negative = inhibition was inconclusive: 1.58%.
For `O=C(Nc1ccc2c(c1)OCCO2)c1cccc(Cl)c1`, the Potency was inconclusive: 20 µM [falling, partial curve].
With `COCCn1c(C)cc(C(=O)COC(=O)c2cccnc2SC)c1C` the activity change, negative = inhibition was “inactive”.
In the case of `CCC(=O)Oc1ccc(C(=O)Nc2ccc3c(c2)C(=O)N(C2CCCCC2)C3=O)cc1`, the activity change, negative = inhibition is reported as inconclusive: 17.1%.
With `O=C(COc1cccc(C(F)(F)F)c1)Nc1ccc(S(=O)(=O)N2CCCC2)cc1` the Potency was inconclusive: 29.1 µM [falling, single point].
For `COc1ccc(-c2nc3sc(CCNS(=O)(=O)c4ccccc4)c(C)n3n2)cc1`, the activity change, negative = inhibition was “inactive”.
For `O=C(Nc1nnc(Cc2c[nH]c3ccccc23)s1)c1ccc(Cl)cc1Cl`, the activity change, negative = inhibition was inconclusive: -0.431%.
In the case of `Clc1ccc(-n2cccc2CN2CCc3c([nH]c4ccccc34)C2c2ccccn2)nc1` (stereo not drawn), the activity change, negative = inhibition is reported as inconclusive: -17.2%.
In the case of `O=C1c2cccnc2Nc2ccccc2N1CCCF`, the activity change, negative = inhibition is reported as inconclusive: -4.29%.
In the case of `COC(=O)c1sc(NC(=O)CSc2nnnn2C)nc1C`, the Potency is reported as inconclusive: 35.5 µM [falling, single point].
With `COc1ccc(CCNS(=O)(=O)c2ccc(Cl)cc2)cc1OC` the activity change, negative = inhibition was inconclusive: 0.528%.
For `O=C(Nc1ccc2c(c1)OCO2)C1CC(c2ccc(F)cc2)=NO1` (stereo not drawn), the Potency was inconclusive: 29.1 µM [falling, single point].
With `CCOc1ccc(C(C)NC(=S)NC2CCCCC2)cc1` (stereo not drawn) the activity change, negative = inhibition was “inactive”.
For `COc1cc(C(=O)NCC(c2ccc(F)cc2)N2CCOCC2)ccc1OCc1ccccc1Cl` (stereo not drawn), the activity change, negative = inhibition was “inactive”.
In the case of `CCOC(=O)c1nn(-c2ccc(F)cc2)c2nc(Nc3ccccc3)cc(=O)n12`, the activity change, negative = inhibition is reported as inconclusive: 0.892%.
For `O=c1c(-c2ccc(Br)cc2)coc2c(CN3CCOCC3)c(O)ccc12`, the activity change, negative = inhibition was inconclusive: 4.15%.
With `COCCOC(=O)C1=C(C)NC(=S)NC1c1cccs1` (stereo not drawn) the activity change, negative = inhibition was inconclusive: -2.61%.
With `CC1CC1C(=O)OCc1cc(=O)n2cc(Br)ccc2n1` (stereo not drawn) the activity change, negative = inhibition was inconclusive: -3.88%.
With `O=C1N=C(N2CCOCC2)S/C1=C/c1ccc(-c2ccc(F)cc2)o1` the activity change, negative = inhibition was inconclusive: 21.9%.
In the case of `CC1CCCCC1NC(=O)/C(C#N)=C/C=C/c1ccccc1[N+](=O)[O-]` (stereo not drawn), the Potency is reported as inconclusive: 10 µM [falling, partial curve].
In the case of `Cc1ccc(F)cc1NC(=O)N1c2ccccc2NC(=O)CC1C` (stereo not drawn), the Potency is reported as inconclusive: 35.5 µM [falling, single point].
In the case of `COc1ccc(CCNS(=O)(=O)c2ccc3c(c2)OCCO3)cc1`, the activity change, negative = inhibition is reported as inconclusive: 3.79%.
With `O=c1[nH]c(CN2CCN(c3ccc(O)cc3)CC2)nc2scc(-c3ccc(Cl)cc3)c12` the Potency was inconclusive: 22.4 µM [falling, single point].
With `C=CCn1c(CC(=O)OC)csc1=Nc1ccc(C(C)=O)cc1` the activity change, negative = inhibition was inconclusive: 0.332%.
With `Cc1cc(N2CCCC2)ccc1/C=N/n1cnnc1` the Potency was inconclusive: 29.1 µM [falling, single point].
For `Cn1cnc([N+](=O)[O-])c1S(=O)(=O)c1ccc(Cl)cc1`, the activity change, negative = inhibition was inconclusive: 13%.
In the case of `COc1cc(-c2nn3c(-c4cccc(C)c4)nnc3s2)cc(OC)c1OC`, the activity change, negative = inhibition is reported as inconclusive: -1.54%.
In the case of `COC(=O)c1ccc(NC(=O)c2cc(-c3ccccn3)nc3ccccc23)cc1`, the activity change, negative = inhibition is reported as “inactive”.
In the case of `O=[N+]([O-])c1cccc(CN2CCN(Cc3ccco3)CC2)c1`, the activity change, negative = inhibition is reported as “inactive”.
In the case of `CC(C)CN(C(=O)COC(=O)c1c2c(nc3ccccc13)CCC2)c1c(N)n(Cc2ccccc2)c(=O)[nH]c1=O`, the activity change, negative = inhibition is reported as inconclusive: -8.16%.
With `Fc1cc2nccnc2cc1N1CCSCC1` the Potency was inconclusive: 20.6 µM [falling, single point].
For `CC(C)(C)c1cc(NC(=O)c2ccc(OC3CCCC3)cc2)no1`, the activity change, negative = inhibition was “inactive”.
In the case of `CC(C)NC(=O)c1ccc(COCC(F)(F)C(F)F)cc1`, the activity change, negative = inhibition is reported as inconclusive: 14.1%.
In the case of `CCOC(=O)c1ccc(-c2ccc3[nH]c4ccccc4c(=O)c3c2)cc1F`, the activity change, negative = inhibition is reported as inconclusive: 14.7%.
For `COc1ccc(C(=O)NCC(=O)OCC(=O)NCCC2=CCCCC2)cc1`, the activity change, negative = inhibition was “inactive”.
With `CC(=O)OC1CC(C)N(C(=O)c2ccccc2)c2ccc(C)cc21` (stereo not drawn) the activity change, negative = inhibition was inconclusive: -0.575%.
With `Cc1cc(C(=O)Nc2cccc(NC(=O)c3ccco3)c2)ccc1[N+](=O)[O-]` the Potency was inconclusive: 7.94 µM [falling, partial curve].
For `COc1ccc(C(=O)n2cc(C(C)=O)c3ccccc32)cc1`, the activity change, negative = inhibition was inconclusive: -7.82%.
With `CC(/C=C/c1ccco1)=N/NC(=O)C1COc2ccccc2O1` (stereo not drawn) the activity change, negative = inhibition was inconclusive: -1.31%.
For `CCOc1ccc(C(=O)NCC(=O)OCCN2C(=O)c3ccccc3C2=O)cc1OCC`, the activity change, negative = inhibition was inconclusive: 0.433%.
With `COc1ccc(N(C)C(=O)CCC(=O)Nc2ccc3nc(N4CCOCC4)cc(C)c3c2)c(OC)c1` the activity change, negative = inhibition was inconclusive: -10.7%.
With `O=C(Oc1ccccc1)c1ccc(NC(=O)c2ccco2)cc1` the activity change, negative = inhibition was inconclusive: 9.6%.
In the case of `COc1ccc(C)c2sc(N(CCN(C)C)C(=O)c3cccc(N4C(=O)CCC4=O)c3)nc12`, the activity change, negative = inhibition is reported as inconclusive: -26.9%.
With `CC1CCCCN1C(=O)CSc1nnc2c(n1)[nH]c1ccc(F)cc12` (stereo not drawn) the activity change, negative = inhibition was “inactive”.
For `Cc1ccc(CS(=O)(=O)c2ncc(Cl)c(C(=O)Nc3nnc(C(C)C)s3)n2)cc1`, the activity change, negative = inhibition was inconclusive: 25.6%.
With `CC(C)(C)c1cc2nc3c(c(=O)n2[nH]1)CN(Cc1ccccc1)C3=O` the activity change, negative = inhibition was “inactive”.
With `CN(C)CCNC(=O)c1ccc(Cl)s1` the activity change, negative = inhibition was inconclusive: -8.04%.
In the case of `COC(=O)c1ccccc1S(=O)(=O)N(Cc1ccco1)Cc1cc2cc(OC)ccc2[nH]c1=O`, the activity change, negative = inhibition is reported as inconclusive: -18.3%.
With `CCOC(=O)COc1ccc(Br)cc1/C=C/c1[nH]c(=O)[nH]c(=O)c1[N+](=O)[O-]` the Potency was inconclusive: 7.08 µM [falling, partial curve, poor fit].
With `COc1ccc([C@@H]2C[C@H](c3ccccc3)Oc3cc(OC)c(OC)c(OC)c32)cc1` the activity change, negative = inhibition was inconclusive: 12.9%.
In the case of `CC[n+]1c(/C=C/Nc2ccccc2)oc2ccc(OC)cc21`, the activity change, negative = inhibition is reported as “inactive”.
For `Cc1cc(C(=O)Nc2cc(Br)ccc2O)on1`, the Potency was inconclusive: 22.4 µM [falling, partial curve].
For `Cc1nc2nc(SCC(=O)NCc3ccco3)nn2c(C)c1Cc1c(F)cccc1Cl`, the activity change, negative = inhibition was inconclusive: -0.119%.
With `NC(=O)c1c(NC(=O)CSc2nc(N)cc(=O)[nH]2)sc2c1CCCC2` the Potency was inconclusive: 12.6 µM [falling, partial curve].
For `CCCOC(=O)c1ccc(Oc2cn[nH]c2-c2ccc(OCC(=O)NN)cc2O)cc1`, the activity change, negative = inhibition was inconclusive: 4.69%.
In the case of `CC(C)CN(CCNC(=O)CCN1N=C(c2ccccc2)CCC1=O)CC(C)C`, the activity change, negative = inhibition is reported as “inactive”.
With `CC(C)(C)NCc1cc(Cl)ccc1OCc1cccs1` the activity change, negative = inhibition was inconclusive: -16%.
In the case of `CN(C)C(=O)CSc1nc2ccccc2n1Cc1ccccc1`, the activity change, negative = inhibition is reported as inconclusive: -1.01%.
With `COc1ccccc1NC(=S)NC1CC2CCC1C2` (stereo not drawn) the activity change, negative = inhibition was inconclusive: 8.12%.
In the case of `COc1ccc(Cl)cc1N1CCN(CCNC(=O)Nc2ccccc2C)CC1`, the activity change, negative = inhibition is reported as inconclusive: -17.2%.
For `Cc1ccc(NC(=O)Nc2ccccc2C(=O)NCc2ccccc2)cc1`, the Potency was inconclusive: 0.92 µM [falling, partial curve, poor fit].
For `C=C(C)c1cccc(C(C)(C)NC(=O)N2CCCC(C)C2)c1` (stereo not drawn), the activity change, negative = inhibition was inconclusive: 0.0751%.
In the case of `COc1cc2nc(SCC(=O)NCCc3ccccc3)n(Cc3ccco3)c(=O)c2cc1OC`, the Potency is reported as inconclusive: 1.46 µM [rising, full curve, poor fit].
With `O=C(NC1CCCC1)C(c1ccncc1)N(C(=O)c1csnn1)c1ccccc1F` (stereo not drawn) the activity change, negative = inhibition was inconclusive: -12%.
With `N=C1/C(=C/c2cccn2Cc2ccc(F)cc2)C(=O)N=C2SC=CN12` the activity change, negative = inhibition was “inactive”.
For `CN1CCCN(C(=O)c2c(F)cccc2Cl)CC1`, the activity change, negative = inhibition was “inactive”.
For `Nc1nsc2ccccc12`, the activity change, negative = inhibition was inconclusive: 13%.
